Test results from paper doi:10.1101/2021.11.08.466737.
Changes are numbered by the printed parent chain. Names may count otherwise. No constants are given. Whether binding was seen depends on the method and setting. Tags and fused reporters may be left off the sequences shown. Values belong to the binder of their own block, whether it stands above or below them.

Key:
[1] = biological target: His-SUMO-Mis18α_(188-233 I201A/L205A) (human) (UniProt Q9NYP9); assay: SEC-MALS
[2] = biological target: His-SUMO-Mis18α_(188-233 L212A/L215A/L219A) (human) (UniProt Q9NYP9); assay: SEC-MALS

- binding [1]: no binding (tested: 2–6 mg/ml injected)
B1: His-SUMO-Mis18α_(188-233 I201A/L205A) (domain or fragment, UniProt Q9NYP9 188-233)
chain: EDKELFNLESRVEAEKSATQMEDVLKALQMKLWEAESKLSFATCKS

- binding [2]: no binding (tested: 2–6 mg/ml injected)
B2: His-SUMO-Mis18α_(188-233 L212A/L215A/L219A) (domain or fragment, UniProt Q9NYP9 188-233)
chain: B1 chain with A14I, A18L, L25A, L28A, L32A
